{"source": "PubChem BioAssay AID1259314, Drosophila RNAi Screening Center, 2017", "aim": "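Genes whose knock-down alters cell survival under toxic manganese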 (primary screen)", "system": "Drosophila S2R+ cells", "reagents": "long dsRNA against Drosophila genes", "duration": "5 days (4 days knock-down, then 1 day metal exposure)", "challenge": "manganese chloride added to 15 mM for 24 hours", "measurement": "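Luciferase ATP signal used as a proxy for viable cell number, reported as one averaged z-score per dsRNA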", "reading the numbers": "mean ATP z-score: higher = more ATP than the plate average, more viable cells under manganese", "active means": "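Called active when the mean ATP z-score is above 1.5 or below -1.5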", "calls": "active = strong ATP change, up or down; inactive = no strong ATP change", "note": "Here is a random part of about 3,100 reagents tested. Of all reagents, 289 (9.3%) were called active. 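Active includes both higher and lower ATP than plate average; check the z-score sign for direction.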 A plus sign joins genes that one reagent is predicted to hit. The record does not give: the amount of reagent."}
{"gene knocked down": "5-HT7 (5-hydroxytryptamine (serotonin) receptor 7)", "amplicon": "DRSC12635", "mean ATP z-score": -0.201, "Outcome": "inactive"}
{"gene knocked down": "5-HT7 (5-hydroxytryptamine (serotonin) receptor 7)", "amplicon": "DRSC24891", "mean ATP z-score": 0.125, "Outcome": "inactive"}
{"gene knocked down": "OtopLa (Otopetrin-like a)", "amplicon": "DRSC23226", "mean ATP z-score": 0.325, "Outcome": "inactive"}
{"gene knocked down": "OtopLa (Otopetrin-like a)", "amplicon": "DRSC29861", "mean ATP z-score": 0.12, "Outcome": "inactive"}
{"gene knocked down": "CG30344", "amplicon": "DRSC26387", "mean ATP z-score": -0.451, "Outcome": "inactive"}
{"gene knocked down": "Or69a (Odorant receptor 69a)", "amplicon": "DRSC11243", "mean ATP z-score": -0.84, "Outcome": "inactive"}
{"gene knocked down": "Or69a (Odorant receptor 69a)", "amplicon": "DRSC25967", "mean ATP z-score": -0.216, "Outcome": "inactive"}
{"gene knocked down": "Ir7e (Ionotropic receptor 7e)", "amplicon": "DRSC18011", "mean ATP z-score": 0.418, "Outcome": "inactive"}

3 entries from above, ordered by “mean ATP z-score”, high to low:
{"gene knocked down": "Ir7e (Ionotropic receptor 7e)", "amplicon": "DRSC18011", "mean ATP z-score": 0.418, "Outcome": "inactive"}
{"gene knocked down": "Or69a (Odorant receptor 69a)", "amplicon": "DRSC25967", "mean ATP z-score": -0.216, "Outcome": "inactive"}
{"gene knocked down": "Or69a (Odorant receptor 69a)", "amplicon": "DRSC11243", "mean ATP z-score": -0.84, "Outcome": "inactive"}

Next records follow.
{"gene knocked down": "Snmp2 (Sensory neuron membrane protein 2)", "amplicon": "DRSC10228", "mean ATP z-score": 0.648, "Outcome": "inactive"}
{"gene knocked down": "Snmp2 (Sensory neuron membrane protein 2)", "amplicon": "DRSC10843", "mean ATP z-score": 0.39, "Outcome": "inactive"}
{"gene knocked down": "l(1)1Bb + ebo", "amplicon": "DRSC28174", "mean ATP z-score": 0.988, "Outcome": "inactive"}
{"gene knocked down": "l(1)1Bb + ebo", "amplicon": "DRSC39798", "mean ATP z-score": 0.0871, "Outcome": "inactive"}
{"gene knocked down": "Stt3A", "amplicon": "DRSC20514", "mean ATP z-score": -0.456, "Outcome": "inactive"}
{"gene knocked down": "Stt3A", "amplicon": "DRSC24884", "mean ATP z-score": 1, "Outcome": "inactive"}
{"gene knocked down": "Ir76a (Ionotropic receptor 76a)", "amplicon": "DRSC10987", "mean ATP z-score": -0.269, "Outcome": "inactive"}
{"gene knocked down": "Gr28a (Gustatory receptor 28a)", "amplicon": "DRSC02290", "mean ATP z-score": -0.0937, "Outcome": "inactive"}
{"gene knocked down": "GlyT (Glycine transporter)", "amplicon": "DRSC04512", "mean ATP z-score": -0.848, "Outcome": "inactive"}
{"gene knocked down": "GlyT (Glycine transporter)", "amplicon": "DRSC26130", "mean ATP z-score": 0.0116, "Outcome": "inactive"}
{"gene knocked down": "Gr22f (Gustatory receptor 22f)", "amplicon": "DRSC00076", "mean ATP z-score": 0.191, "Outcome": "inactive"}
{"gene knocked down": "Gr22f (Gustatory receptor 22f)", "amplicon": "DRSC26841", "mean ATP z-score": -0.45, "Outcome": "inactive"}
